Results on four molecules are retold here after patent publication US20090155249A1.

Amino acid sequences for entries named in this document (tags omitted). Residues count along the entry.
UniProt P05067, residues 672-713: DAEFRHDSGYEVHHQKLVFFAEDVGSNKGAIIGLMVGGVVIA

Substitutions are numbered along the chain they refer to. No constants are given. Whether binding was seen depends on the method and setting. Some binding calls cover weakened binding; strength is not graded here.

Assay [1] deals with Amyloid Beta (antigen of the Amyloid Beta ELISA) (UniProt P05067). Briefly: Amyloid Beta ELISA, conditioned medium from transient transfection. Background: An ELISA detects its analyte on a solid surface through an enzyme-linked reagent.
Assay [2] deals with amyloid plaques in brain sections of AD patients (human) (UniProt P05067). Briefly: immunohistochemistry, paraffin sections of human brain pretreated with formic acid.
The target in assay [3] is Amyloid Beta (antigen of the Amyloid Beta ELISA) (UniProt P05067). Briefly: Amyloid Beta ELISA, antibody purified from stable NS0 cell lines.
Assay [4] shares this target. The assay is described as follows: Amyloid Beta ELISA, A405.
Assay [5] has the same target. The assay is described as follows: Amyloid Beta ELISA, purified antibodies, A405.
Assay [6] shares this target. The assay is described as follows: Amyloid Beta ELISA, conditioned medium from transient transfection, A405.
The target is the same in assay [7]. The assay is described as follows: Amyloid Beta ELISA, purified antibodies.

B1: chimeric antibody C2 ChVH AF/ChVK (antibody, V domains shown)
VH: EVQLVESGGGLVQPGGSLKLSCAASGFTFSSYGMSWVRQTPDKRLELVASINSNGGSTYYPDSVKGRFTISRDNAKNTLYLQMSSLKSEDTAMYYCASGDYWGQGSTLTVSS
VL: DVVMTQTPLSLPVSLGDQASISCRSSQSLVYSNGDTYLHWYLQKPGQSPKLLIYKVSNRFSGVPDRFSGSGSGTDFTLKISRVEAEDLGVYFCSQSTHVPWTFGGGTKLEIKR
Take B1: the binding result in assay [1], in assay [2], in assay [3], in assay [4] and in assay [5] was “binds” each time.

B2: VK-R antibody (mC2 VK-R combined with chimeric C2 VH) (antibody, V domains shown)
VH: B1 VH
VL: DVVMTQTPLSLPVSLGDQASISCRSSQSLVYSNGDTYLHWYLQKPGQSPKLLIYRVSNRFSGVPDRFSGSGSGTDFTLKISRVEAEDLGVYFCSQSTHVPWTFGGGTKLEIK
Consider B2, for which the binding entry in assay [1] and in assay [6] was “binds” each time.

B3: humanized antibody C2HuVH4/HuVK2 (antibody, human IgG4 S228P, kappa, V domains shown)
VH: EVQLVESGGGLVQPGGSLRLSCAASGFTFSSYGMSWVRQAPGKGLELVASINSNGGSTYYPDSVKGRFTISRDNAKNSLYLQMNSLRAEDTAVYYCASGDYWGQGTTVTVSS
VL: B1 VL with V2I, T7S, S14T, L15P, D17E, Q18P, K50Q, L88V, G105Q, L109V
Consider B3, for which the binding entry in assay [7] and in assay [5] was “binds” throughout.

B4: VK-S antibody (mC2 VK-S combined with chimeric C2 VH) (antibody, V domains shown)
VH: B1 VH
VL: B2 VL with R55K, N58S
As to B4, the binding result in assay [1] and in assay [6] was “binds” in each case.
